Measured values: PMC8785526
Results are given in words; binding and its absence hold for the method and conditions named. Binding seen in cells or lysates may run through a third protein. A yes stands for co-enrichment or nearness to the bait. Other partners may have been found.

Amino acid sequences for entries named in this document (tags omitted).
UniProt Q96L73: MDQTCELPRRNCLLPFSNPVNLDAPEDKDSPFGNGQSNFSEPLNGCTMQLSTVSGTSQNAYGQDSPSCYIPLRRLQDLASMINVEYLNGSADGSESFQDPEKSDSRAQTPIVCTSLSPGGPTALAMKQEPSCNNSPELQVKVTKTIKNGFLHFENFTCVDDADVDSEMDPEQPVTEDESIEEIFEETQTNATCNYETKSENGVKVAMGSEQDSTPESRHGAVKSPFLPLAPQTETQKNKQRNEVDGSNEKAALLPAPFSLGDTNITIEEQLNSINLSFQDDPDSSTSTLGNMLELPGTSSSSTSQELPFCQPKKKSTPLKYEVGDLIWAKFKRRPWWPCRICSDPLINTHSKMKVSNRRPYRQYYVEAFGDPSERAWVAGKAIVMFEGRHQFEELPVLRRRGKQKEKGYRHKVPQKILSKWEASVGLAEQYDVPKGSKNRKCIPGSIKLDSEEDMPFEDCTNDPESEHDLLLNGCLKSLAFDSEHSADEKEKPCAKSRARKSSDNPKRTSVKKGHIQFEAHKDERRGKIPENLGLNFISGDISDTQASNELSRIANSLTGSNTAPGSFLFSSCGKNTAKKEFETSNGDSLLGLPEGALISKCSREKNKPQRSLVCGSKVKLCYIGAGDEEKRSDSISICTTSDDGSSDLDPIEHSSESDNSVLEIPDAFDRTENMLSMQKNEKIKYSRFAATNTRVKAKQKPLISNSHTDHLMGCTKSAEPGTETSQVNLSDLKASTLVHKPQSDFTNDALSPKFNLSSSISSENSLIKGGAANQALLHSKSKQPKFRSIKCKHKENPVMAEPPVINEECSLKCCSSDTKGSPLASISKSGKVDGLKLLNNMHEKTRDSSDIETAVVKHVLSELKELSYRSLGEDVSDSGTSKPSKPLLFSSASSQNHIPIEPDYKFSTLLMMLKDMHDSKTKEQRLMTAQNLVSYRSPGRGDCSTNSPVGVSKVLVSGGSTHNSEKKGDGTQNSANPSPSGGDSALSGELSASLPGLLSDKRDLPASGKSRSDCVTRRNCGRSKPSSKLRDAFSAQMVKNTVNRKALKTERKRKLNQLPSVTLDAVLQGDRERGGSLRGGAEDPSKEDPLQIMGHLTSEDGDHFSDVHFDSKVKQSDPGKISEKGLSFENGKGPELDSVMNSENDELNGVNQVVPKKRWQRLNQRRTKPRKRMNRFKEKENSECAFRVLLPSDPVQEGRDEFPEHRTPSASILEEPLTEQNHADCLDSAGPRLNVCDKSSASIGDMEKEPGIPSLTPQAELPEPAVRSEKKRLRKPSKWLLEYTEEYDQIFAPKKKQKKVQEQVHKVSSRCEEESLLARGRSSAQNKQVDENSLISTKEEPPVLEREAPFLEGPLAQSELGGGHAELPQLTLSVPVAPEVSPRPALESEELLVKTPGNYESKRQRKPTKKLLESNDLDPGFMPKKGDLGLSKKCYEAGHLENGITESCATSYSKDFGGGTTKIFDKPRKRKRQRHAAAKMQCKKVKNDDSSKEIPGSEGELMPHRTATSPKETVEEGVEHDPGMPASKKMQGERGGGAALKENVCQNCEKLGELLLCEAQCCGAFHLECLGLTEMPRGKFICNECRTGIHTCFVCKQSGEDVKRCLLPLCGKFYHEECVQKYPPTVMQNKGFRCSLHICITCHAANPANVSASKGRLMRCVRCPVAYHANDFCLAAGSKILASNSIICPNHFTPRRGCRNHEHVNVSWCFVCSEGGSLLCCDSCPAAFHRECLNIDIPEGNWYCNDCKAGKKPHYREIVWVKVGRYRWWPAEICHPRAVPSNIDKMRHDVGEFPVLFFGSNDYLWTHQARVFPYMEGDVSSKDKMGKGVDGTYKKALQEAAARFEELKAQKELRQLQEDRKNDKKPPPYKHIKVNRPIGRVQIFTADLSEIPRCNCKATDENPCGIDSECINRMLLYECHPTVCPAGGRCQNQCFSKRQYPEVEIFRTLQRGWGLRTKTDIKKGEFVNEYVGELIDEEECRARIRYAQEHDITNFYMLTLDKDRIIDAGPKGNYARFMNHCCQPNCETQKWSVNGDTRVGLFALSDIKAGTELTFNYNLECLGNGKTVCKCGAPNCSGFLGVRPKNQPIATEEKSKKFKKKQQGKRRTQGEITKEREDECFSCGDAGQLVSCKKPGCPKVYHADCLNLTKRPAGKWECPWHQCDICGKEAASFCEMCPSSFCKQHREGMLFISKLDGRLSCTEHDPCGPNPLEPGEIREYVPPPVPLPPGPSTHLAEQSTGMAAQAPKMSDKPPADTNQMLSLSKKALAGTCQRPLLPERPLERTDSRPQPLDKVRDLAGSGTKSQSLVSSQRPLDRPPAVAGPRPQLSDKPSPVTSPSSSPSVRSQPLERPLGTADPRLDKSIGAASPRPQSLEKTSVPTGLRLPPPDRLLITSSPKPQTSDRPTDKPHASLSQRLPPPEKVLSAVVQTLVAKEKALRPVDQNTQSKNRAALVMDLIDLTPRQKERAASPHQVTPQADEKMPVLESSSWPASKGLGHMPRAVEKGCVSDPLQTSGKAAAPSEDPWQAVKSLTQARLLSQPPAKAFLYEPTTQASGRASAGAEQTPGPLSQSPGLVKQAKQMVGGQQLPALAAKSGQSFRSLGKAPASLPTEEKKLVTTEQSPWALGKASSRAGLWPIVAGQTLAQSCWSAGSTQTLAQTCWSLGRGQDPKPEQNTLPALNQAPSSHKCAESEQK
UniProt O60264: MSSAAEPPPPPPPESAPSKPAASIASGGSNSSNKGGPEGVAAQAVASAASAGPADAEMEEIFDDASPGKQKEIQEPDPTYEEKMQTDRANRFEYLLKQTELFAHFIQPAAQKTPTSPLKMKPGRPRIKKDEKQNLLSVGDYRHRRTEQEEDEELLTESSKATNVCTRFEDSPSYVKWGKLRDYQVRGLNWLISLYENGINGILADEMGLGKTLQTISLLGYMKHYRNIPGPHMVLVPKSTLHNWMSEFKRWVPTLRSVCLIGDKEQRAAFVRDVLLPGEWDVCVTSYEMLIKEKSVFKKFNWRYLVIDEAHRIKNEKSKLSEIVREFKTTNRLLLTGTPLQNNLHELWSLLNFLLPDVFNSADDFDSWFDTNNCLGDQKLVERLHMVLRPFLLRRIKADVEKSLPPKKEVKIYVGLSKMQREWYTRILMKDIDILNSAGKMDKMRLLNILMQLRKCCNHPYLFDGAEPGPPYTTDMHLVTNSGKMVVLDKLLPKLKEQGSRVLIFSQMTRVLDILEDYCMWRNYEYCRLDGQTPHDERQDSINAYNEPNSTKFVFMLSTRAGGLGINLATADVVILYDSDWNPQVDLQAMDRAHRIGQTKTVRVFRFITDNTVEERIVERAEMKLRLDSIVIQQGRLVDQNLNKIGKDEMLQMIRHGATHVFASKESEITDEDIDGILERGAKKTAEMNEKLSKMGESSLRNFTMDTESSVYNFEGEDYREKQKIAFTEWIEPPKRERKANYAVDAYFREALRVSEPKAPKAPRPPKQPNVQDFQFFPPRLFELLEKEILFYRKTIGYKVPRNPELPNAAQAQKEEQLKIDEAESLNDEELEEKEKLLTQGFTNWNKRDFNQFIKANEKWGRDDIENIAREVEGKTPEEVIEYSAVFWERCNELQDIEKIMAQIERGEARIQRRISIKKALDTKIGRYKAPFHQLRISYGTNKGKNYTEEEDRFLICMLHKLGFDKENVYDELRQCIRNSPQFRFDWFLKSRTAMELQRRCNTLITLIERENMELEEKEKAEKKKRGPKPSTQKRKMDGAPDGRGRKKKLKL

Target: WT-NSD1 (UniProt Q96L73)
Experiment: affinity purification with mass spectrometry; separate analysis of the interactomes of WT NSD1 and the NUP98 N-terminus as baits; details in Supplementary Fig. 1 and Tables 2 and 3

- binding: binds
Substance: SMARCA5 (from UniProt O60264 1-1052)
